According to publication PMC7156099:
Results are given in words; binding and its absence hold for the method and conditions named. In cells and extracts the contact can be indirect. Values belong to the binder of their own block, whether it stands above or below them.

Biological target: T1, AKAP1 (human (endogenous in A549 and U2OS)) (UniProt Q92667)
T1 sequence: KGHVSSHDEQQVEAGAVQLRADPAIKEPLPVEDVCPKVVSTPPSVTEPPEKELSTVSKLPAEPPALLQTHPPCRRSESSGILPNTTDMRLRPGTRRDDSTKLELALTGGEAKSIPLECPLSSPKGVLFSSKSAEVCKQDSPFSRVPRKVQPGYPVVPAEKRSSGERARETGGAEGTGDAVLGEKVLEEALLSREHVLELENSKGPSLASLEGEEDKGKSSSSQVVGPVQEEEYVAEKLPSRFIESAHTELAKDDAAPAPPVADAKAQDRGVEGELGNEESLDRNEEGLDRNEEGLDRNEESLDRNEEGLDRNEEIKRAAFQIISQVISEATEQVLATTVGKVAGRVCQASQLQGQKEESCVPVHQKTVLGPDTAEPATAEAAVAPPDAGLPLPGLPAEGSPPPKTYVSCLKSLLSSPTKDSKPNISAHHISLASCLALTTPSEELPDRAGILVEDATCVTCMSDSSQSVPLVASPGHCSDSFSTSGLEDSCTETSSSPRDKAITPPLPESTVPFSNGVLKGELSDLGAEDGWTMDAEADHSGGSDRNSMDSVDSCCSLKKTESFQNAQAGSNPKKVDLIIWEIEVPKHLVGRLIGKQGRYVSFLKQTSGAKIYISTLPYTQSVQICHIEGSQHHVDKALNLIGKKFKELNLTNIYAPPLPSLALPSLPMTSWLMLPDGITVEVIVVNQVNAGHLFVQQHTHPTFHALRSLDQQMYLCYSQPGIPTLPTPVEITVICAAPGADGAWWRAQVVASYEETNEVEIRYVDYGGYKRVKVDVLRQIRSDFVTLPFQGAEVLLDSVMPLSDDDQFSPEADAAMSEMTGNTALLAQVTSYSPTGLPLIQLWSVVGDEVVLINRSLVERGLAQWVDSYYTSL
Experiment: co-IP; endogenous AKAP1 immunoprecipitated with anti-AKAP1 antibody (D9C5) and protein A/G agarose from lysate of mitochondria (0.3% NP40, 150 mM NaCl, 50 mM Tris pH 7.5) of U2OS cells; immunoblot

- binding: no binding
B1: Mios (protein, UniProt Q9NXC5 1-875)
chain: MSGTKPDILWAPHHVDRFVVCDSELSLYHVESTVNSELKAGSLRLSEDSAATLLSINSDTPYMKCVAWYLNYDPECLLAVGQANGRVVLTSLGQDHNSKFKDLIGKEFVPKHARQCNTLAWNPLDSNWLAAGLDKHRADFSVLIWDICSKYTPDIVPMEKVKLSAGETETTLLVTKPLYELGQNDACLSLCWLPRDQKLLLAGMHRNLAIFDLRNTSQKMFVNTKAVQGVTVDPYFHDRVASFYEGQVAIWDLRKFEKPVLTLTEQPKPLTKVAWCPTRTGLLATLTRDSNIIRLYDMQHTPTPIGDETEPTIIERSVQPCDNYIASFAWHPTSQNRMIVVTPNRTMSDFTVFERISLAWSPITSLMWACGRHLYECTEEENDNSLEKDIATKMRLRALSRYGLDTEQVWRNHILAGNEDPQLKSLWYTLHFMKQYTEDMDQKSPGNKGSLVYAGIKSIVKSSLGMVESSRHNWSGLDKQSDIQNLNEERILALQLCGWIKKGTDVDVGPFLNSLVQEGEWERAAAVALFNLDIRRAIQILNEGASSEKGDLNLNVVAMALSGYTDEKNSLWREMCSTLRLQLNNPYLCVMFAFLTSETGSYDGVLYENKVAVRDRVAFACKFLSDTQLNRYIEKLTNEMKEAGNLEGILLTGLTKDGVDLMESYVDRTGDVQTASYCMLQGSPLDVLKDERVQYWIENYRNLLDAWRFWHKRAEFDIHRSKLDPSSKPLAQVFVSCNFCGKSISYSCSAVPHQGRGFSQYGVSGSPTKSKVTSCPGCRKPLPRCALCLINMGTPVSSCPGGTKSDEKVDLSKDKKLAQFNNWFTWCHNCRHGGHAGHMLSWFRDHAECPVSACTCKCMQLDTTGNLVPAETVQP

- binding: no binding
B2: SESN2 (protein, UniProt P58004 1-480)
chain: MIVADSECRAELKDYLRFAPGGVGDSGPGEEQRESRARRGPRGPSAFIPVEEVLREGAESLEQHLGLEALMSSGRVDNLAVVMGLHPDYFTSFWRLHYLLLHTDGPLASSWRHYIAIMAAARHQCSYLVGSHMAEFLQTGGDPEWLLGLHRAPEKLRKLSEINKLLAHRPWLITKEHIQALLKTGEHTWSLAELIQALVLLTHCHSLSSFVFGCGILPEGDADGSPAPQAPTPPSEQSSPPSRDPLNNSGGFESARDVEALMERMQQLQESLLRDEGTSQEEMESRFELEKSESLLVTPSADILEPSPHPDMLCFVEDPTFGYEDFTRRGAQAPPTFRAQDYTWEDHGYSLIQRLYPEGGQLLDEKFQAAYSLTYNTIAMHSGVDTSVLRRAIWNYIHCVFGIRYDDYDYGEVNQLLERNLKVYIKTVACYPEKTTRRMYNLFWRHFRHSEKVHVNLLLLEARMQAALLYALRAITRYMT
